The other results are listed elsewhere or left out.
Molecular target: OsWRKY34 (Oryza sativa, UniProt Q0JBA9 1-250)
Assay: protein-binding microarray (RPBM); PBS, 2% BSA, 51.3 ng/ul salmon testes DNA, 50 uM zinc acetate, 200 nM TF, 25 C, 1 h; high values mean tight binding
Details: protein: recombinant; tags: N-terminal polyhistidine and DsRed monomer fusion (pET32a); label: CyDye5-dUTP incorporated in the synthesized complementary strand; 3' TTTTT single-stranded linker to array surface; dsDNA, one strand shown
Summary of the method: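 A custom Agilent array was converted to double-stranded form by primer extension with Cy5-dUTP and blocked with 2% BSA. Protein at 200 nM in PBS with 2% BSA, salmon testes DNA and 50 µM zinc acetate was applied for 1 h at 25 °C, followed by washing. The proteins were polyhistidine–DsRed N-terminal fusions of transcription factors, expressed in E. coli BL21-CodonPlus and Ni–NTA-purified. The binding signal is per-feature fluorescence intensity (arbitrary units) from an Axon 4000B scanner.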

Protein sequences, listed by entry. Tags and fused reporters are not part of them.
UniProt Q0JBA9, entry or part of it: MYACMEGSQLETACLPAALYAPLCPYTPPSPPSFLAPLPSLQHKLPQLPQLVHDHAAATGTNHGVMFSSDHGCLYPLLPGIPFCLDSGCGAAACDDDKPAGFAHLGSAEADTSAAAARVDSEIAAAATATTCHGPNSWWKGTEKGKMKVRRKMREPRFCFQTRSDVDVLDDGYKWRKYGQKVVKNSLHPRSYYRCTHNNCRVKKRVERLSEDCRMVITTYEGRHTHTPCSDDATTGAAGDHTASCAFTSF

| Sequence | binding signal |
| --- | --- |
| GTTGACTATGACAACAGTCGCGACCGACTATTAAGATCCTCGGAGTCACCTAGTGCAG | 8520 fluorescence intensity (a.u.) |
| TAGTAATCCAGGTATTTTAGTCATTTTGCAGCATCACTCACGGAGTCACCTAGTGCAG | 8510 fluorescence intensity (a.u.) |
| AATTTTGATTAATCTCGTATTGGGTTCTTATATGGAAACTCGGAGTCACCTAGTGCAG | 8486 ± 37.5 fluorescence intensity (a.u.) |
| GATTAGGTTTTTCGATTCTCTTTGTAACCCTATCCCCTACCGGAGTCACCTAGTGCAG | 8520 fluorescence intensity (a.u.) |
| AGCCACCAGCCGTGCCGCGCCTCCGTGCCTCTCCGTGCCGCGGAGTCACCTAGTGCAG | 8460 fluorescence intensity (a.u.) |
| CAGCTCAACCATTTCTTCAGTGTATTCTAGAGCTAATTTTCGGAGTCACCTAGTGCAG | 9930 fluorescence intensity (a.u.) |
| TCTCCTCGCGCGAGTTCGCCCGCCGCCTGCGCCGATCTCCCGGAGTCACCTAGTGCAG | 9460 fluorescence intensity (a.u.) |
| GTGGCCAACCAACTTTCACGCTCTTTTTTCATTACTTTCTCGGAGTCACCTAGTGCAG | 12800 fluorescence intensity (a.u.) |
| AGGACAGTACTACAGACATAGTTAATGACAGCATACCCATCGGAGTCACCTAGTGCAG | 9080 fluorescence intensity (a.u.) |
| AGTGGGCTGGGATGCTTGTGTTGTGTCTTCTGCTTCCTGGCGGAGTCACCTAGTGCAG | 9770 fluorescence intensity (a.u.) |
| GTTCACCGAGTAGTTATTCTGCATTCATTCAACCAACACACGGAGTCACCTAGTGCAG | 11600 fluorescence intensity (a.u.) |
| TAATGGAAAAAATTGTTTAAAAAAGGTCAAATAGTAAAAACGGAGTCACCTAGTGCAG | 58800 fluorescence intensity (a.u.) |
| AAAAGTTGGGTGGCTATTTTCGTGTGCAGGTGACTTAATACGGAGTCACCTAGTGCAG | 8520 fluorescence intensity (a.u.) |
| ATCGCCACCTCTTTTGTTGCCAAAACAAAGCTTTTGCCCACGGAGTCACCTAGTGCAG | 8160 fluorescence intensity (a.u.) |
| GGCCGGGGAGGGAGGGGCGCCGTCGTCCTGCTGCATCCTGCGGAGTCACCTAGTGCAG | 20700 fluorescence intensity (a.u.) |
| ACCTCCATTCTCTTAGCTCTGATGTATTCTGCTTTTTCATCGGAGTCACCTAGTGCAG | 8120 fluorescence intensity (a.u.) |
| TTCTTTAATTTGCAAAAAATATGTTTGTGAATTCTCACTCCGGAGTCACCTAGTGCAG | 8300 fluorescence intensity (a.u.) |
| TCATCCTGCTGCTGCTCCTCCTGACTTCTCCTTGCGCCGTCGGAGTCACCTAGTGCAG | 8310 fluorescence intensity (a.u.) |
| ACAACTAAATCCCGTCTGCAATTGCTTTTCTTCACAATTACGGAGTCACCTAGTGCAG | 10800 fluorescence intensity (a.u.) |
| CCTGCCCGCCGATCGGCCATCCCCTTGGATCTCGCAGCTTCGGAGTCACCTAGTGCAG | 8730 fluorescence intensity (a.u.) |
| TATCATCAACAATGTTATTGTTCAGTTCATTTCATTTTCACGGAGTCACCTAGTGCAG | 8770 fluorescence intensity (a.u.) |
| GCCGCCTCGTTCGCCTCCGGGTTCCCCTTGTACCCGCTCGCGGAGTCACCTAGTGCAG | 8820 fluorescence intensity (a.u.) |
| CTGCGGCCCGGCGGGAGTGGGAGGGGCGGCGGGCCGGACCCGGAGTCACCTAGTGCAG | 9720 fluorescence intensity (a.u.) |
| ACGACCCTCTACATGTTGCTGCTGGCAGCCGCTCCCTCTCCGGAGTCACCTAGTGCAG | 8660 fluorescence intensity (a.u.) |
| GCCTTGTCTATTGCCTCAGAAGTTGGTTACCCTGTTGTTGCGGAGTCACCTAGTGCAG | 8150 fluorescence intensity (a.u.) |
| ACACCGCCCGCTGCACACCGGCCATCTCCACCACGAACTCCGGAGTCACCTAGTGCAG | 9520 fluorescence intensity (a.u.) |
| AAGTAGTTTTTGTGTTGCTGCTTTTCGCCCTCACAAATATCGGAGTCACCTAGTGCAG | 10800 fluorescence intensity (a.u.) |

| Sequence | binding signal |
| --- | --- |
| CTGCAGACCCAGCTAGCATAGCCGATGTCTCCTCTTGCTACGGAGTCACCTAGTGCAG | 8640 fluorescence intensity (a.u.) |
| TTATCATGTCAGTACTACTATGCACATATAACTTGTGTACCGGAGTCACCTAGTGCAG | 8020 fluorescence intensity (a.u.) |
| CGCCCTGTTCCTTCCGCCGTACCGCACAGGACGAGGACCACGGAGTCACCTAGTGCAG | 8970 fluorescence intensity (a.u.) |
| CGCCGCCACAACCGCGCGCCGTCACCGCCGCGTGCCGTCACGGAGTCACCTAGTGCAG | 8250 fluorescence intensity (a.u.) |
| TGGGATTAGGGTTCTTGTCTCGGAGAGTCGGAGGCTTTGGCGGAGTCACCTAGTGCAG | 8610 fluorescence intensity (a.u.) |
| ATTGTCCTTGGCTCTCACGATCTCACAATACACCATTAGACGGAGTCACCTAGTGCAG | 9080 fluorescence intensity (a.u.) |
| AAACCGATCGCACACCCATCCGCCGGCGTCCTCAGCTCGACGGAGTCACCTAGTGCAG | 9860 fluorescence intensity (a.u.) |
| CCCCATGCGCCGCCCGCCCCTCCGCGTAGCAATTCGCCGGCGGAGTCACCTAGTGCAG | 10600 fluorescence intensity (a.u.) |
| ACCCAGTCCCATTCCTCAAGCCCATTGGACACAACATGTCCGGAGTCACCTAGTGCAG | 9580 fluorescence intensity (a.u.) |
| ACATCCTACTCATGACACACTCATGCATGCCACCTCATCCCGGAGTCACCTAGTGCAG | 12200 fluorescence intensity (a.u.) |
| ACCATCAACGGCCCACCTCTCATCCGCAGCATATAACACCCGGAGTCACCTAGTGCAG | 9800 fluorescence intensity (a.u.) |
| TTGAGTTTGGATAATTAATTAATCATGTTTCTGTTCTTATCGGAGTCACCTAGTGCAG | 8500 fluorescence intensity (a.u.) |
| GAGATTTGTTTGATGTATCAGGGTGTCACGTTGTCATGTTCGGAGTCACCTAGTGCAG | 11400 fluorescence intensity (a.u.) |
| TGTTCAGTCACTCCACTATAAATATGCCACTGCAGTACTGCGGAGTCACCTAGTGCAG | 10200 fluorescence intensity (a.u.) |
| CAGCTCATTCATACATTAGTTATCTATAAATCATTAACATCGGAGTCACCTAGTGCAG | 8590 fluorescence intensity (a.u.) |
| TCCAGGTAACCCTTCGCTTTCCTCATTTCTGTATCGTTTCCGGAGTCACCTAGTGCAG | 11600 fluorescence intensity (a.u.) |
| TTAACAAAATTATTCATAGCCGTTGACTCTAGATTTTGGCCGGAGTCACCTAGTGCAG | 9000 fluorescence intensity (a.u.) |
| GAGGAGAGGCGGGGTGAGACGGGACGGGAGGGTGGCGATGCGGAGTCACCTAGTGCAG | 9530 fluorescence intensity (a.u.) |
| TGCCGGCATTGTCATCGCATGCCATTCATCCACTCGACTTCGGAGTCACCTAGTGCAG | 9500 fluorescence intensity (a.u.) |
| TTCACTATCTCAGCCATTCCTTTTGTACCGCTCTTGTTGACGGAGTCACCTAGTGCAG | 9650 fluorescence intensity (a.u.) |
| TTTTTTTTTGTTTTTTCTCAATAGTTTTTCTTTATTTCATCGGAGTCACCTAGTGCAG | 8530 fluorescence intensity (a.u.) |
| TTCGAGCTATATGTCTCTATCTACATTTCATTATTGTTATCGGAGTCACCTAGTGCAG | 8220 fluorescence intensity (a.u.) |
| TACTTGGTGCAGTGTTGAGCCTTGTTTTACAATAAATTTTCGGAGTCACCTAGTGCAG | 8100 fluorescence intensity (a.u.) |
| CCAACTCACAAACTAACATGACTTTGACCTTGTTTATGCACGGAGTCACCTAGTGCAG | 8030 fluorescence intensity (a.u.) |
| AATAGTCTGAAACAACTTGTAGTGTCTGTTTCCATGTTGCCGGAGTCACCTAGTGCAG | 9580 fluorescence intensity (a.u.) |
| GCCGCACCCAACCAACCCGCCACCGTCTCCCACACGCGCCCGGAGTCACCTAGTGCAG | 8380 fluorescence intensity (a.u.) |
| CCACATTCTCCATATTCTCAGAAGCTTGATACTAACTAGCCGGAGTCACCTAGTGCAG | 8110 fluorescence intensity (a.u.) |

Taken from the results shown for reference:

| Sequence | binding signal |
| --- | --- |
| TTGAGTTTGGATAATTAATTAATCATGTTTCTGTTCTTATCGGAGTCACCTAGTGCAG | 8500 fluorescence intensity (a.u.) |
| GAGATTTGTTTGATGTATCAGGGTGTCACGTTGTCATGTTCGGAGTCACCTAGTGCAG | 11400 fluorescence intensity (a.u.) |
